The source of these data is paper doi:10.1101/2022.09.28.509878.

In the assay the target is NT*-hCPEB3 (human) (UniProt Q8NE35). The assay can be described thus: native MS.

These are yes or no findings as the source states them, for the method shown.

B1: NT*-hCPEB3 (protein, UniProt Q8NE35 1-698)
chain: MQDDLLMDKSKTQPQPQQQQRQQQQPQPESSVSEAPSTPLSSETPKPEENSAVPALSPAAAPPAPNGPDKMQMESPLLPGLSFHQPPQQPPPPQEPAAPGASLSPSFGSTWSTGTTNAVEDSFFQGITPVNGTMLFQNFPHHVNPVFGGTFSPQIGLAQTQHHQQPPPPAPAPQPAQPAQPPQAQPPQQRRSPASPSQAPYAQRSAAAAYGHQPIMTSKPSSSSAVAAAAAAAAASSASSSWNTHQSVNAAWSAPSNPWGGLQAGRDPRRAVGVGVGVGVGVPSPLNPISPLKKPFSSNVIAPPKFPRAAPLTSKSWMEDNAFRTDNGNNLLPFQDRSRPYDTFNLHSLENSLMDMIRTDHEPLKGKHYPPSGPPMSFADIMWRNHFAGRMGINFHHPGTDNIMALNNAFLDDSHGDQALSSGLSSPTRCQNGERVERYSRKVFVGGLPPDIDEDEITASFRRFGPLVVDWPHKAESKSYFPPKGYAFLLFQEESSVQALIDACLEEDGKLYLCVSSPTIKDKPVQIRPWNLSDSDFVMDGSQPLDPRKTIFVGGVPRPLRAVELAMIMDRLYGGVCYAGIDTDPELKYPKGAGRVAFSNQQSYIAAISARFVQLQHNDIDKRVEVKPYVLDDQMCDECQGTRCGGKFAPFFCANVTCLQYYCEYCWASIHSRAGREFHKPLVKEGGDRPRHVPFRWS
As for B1, the binding entry is on record as “no binding (tested: 10 to 15 μM protein)”.
